Further values from the same series stand in other lists.

The chains behind the UniProt entries cited, without tags or fusion partners.
UniProt Q61188, whole entry: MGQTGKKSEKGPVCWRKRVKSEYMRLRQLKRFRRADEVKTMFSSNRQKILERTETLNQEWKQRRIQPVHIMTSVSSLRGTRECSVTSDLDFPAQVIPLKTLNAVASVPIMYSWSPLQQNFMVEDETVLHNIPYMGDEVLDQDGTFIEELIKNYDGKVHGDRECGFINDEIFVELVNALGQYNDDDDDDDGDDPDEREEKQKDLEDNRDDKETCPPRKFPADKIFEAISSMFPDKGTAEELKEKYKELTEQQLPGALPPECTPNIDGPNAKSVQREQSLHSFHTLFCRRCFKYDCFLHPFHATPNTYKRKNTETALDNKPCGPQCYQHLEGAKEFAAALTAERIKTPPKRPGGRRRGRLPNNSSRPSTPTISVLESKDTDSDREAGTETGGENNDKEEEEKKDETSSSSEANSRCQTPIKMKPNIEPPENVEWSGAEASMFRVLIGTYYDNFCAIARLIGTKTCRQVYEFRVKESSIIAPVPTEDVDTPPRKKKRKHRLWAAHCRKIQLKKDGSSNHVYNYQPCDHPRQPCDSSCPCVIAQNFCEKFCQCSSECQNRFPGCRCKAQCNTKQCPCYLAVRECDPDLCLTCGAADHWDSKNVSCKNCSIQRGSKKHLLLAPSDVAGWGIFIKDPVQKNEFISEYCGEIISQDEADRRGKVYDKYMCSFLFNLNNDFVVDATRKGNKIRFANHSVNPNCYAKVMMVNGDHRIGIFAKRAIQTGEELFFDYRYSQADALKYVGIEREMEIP

This is an account of results in ChEMBL document CHEMBL5674883, “The Heterochromatin Landscape in Migrating Cells and the Importance of H3K27me3 for Associated Transcriptome Alterations” (Cells, 2018).

Type in all cases: cell-based
The target in assay [1] is T1, RNA polymerase II (Mus musculus) (UniProt P08775+Q8CFI7+P97760+A0A3Q4L2S8+Q80UW8+P61219+P62488+Q923G2+P60898+O08740+Q63871+P62876). The assay can be described thus: Inhibition of RNA polymerase II in mouse B16-F1 migrating cells assessed as fold change in Lamtor1-RNA stability at 0.1 mM measured by ChIP-seq analysis relative to control cells.
The target of assay [2] is T1, RNA polymerase II (Mus musculus). The assay can be described thus: Inhibition of RNA polymerase II in mouse B16-F1 migrating cells assessed as fold change in Cracr2b-RNA stability at 0.1 mM measured by ChIP-seq analysis relative to control cells.
Assay [3] has the same target. Kind of assay: Inhibition of RNA polymerase II in mouse B16-F1 migrating cells assessed as fold change in Npdc1-RNA stability at 0.1 mM measured by ChIP-seq analysis relative to control cells.
For assay [4] the target is unchanged. The assay can be described thus: Inhibition of RNA polymerase II in mouse B16-F1 migrating cells assessed as fold change in Rp9-RNA stability at 0.1 mM measured by ChIP-seq analysis relative to control cells.
For assay [5] the target is unchanged. The assay can be described thus: Inhibition of RNA polymerase II in mouse B16-F1 migrating cells assessed as fold change in Amz2-RNA stability at 0.1 mM measured by ChIP-seq analysis relative to control cells.
Assay [6] shares this target. The assay can be described thus: Inhibition of RNA polymerase II in mouse B16-F1 migrating cells assessed as fold change in Rapgef4-RNA stability at 0.1 mM measured by ChIP-seq analysis relative to control cells.
For assay [7] the target is unchanged. The assay can be described thus: Inhibition of RNA polymerase II in mouse B16-F1 migrating cells assessed as fold change in Rbm28-RNA stability at 0.1 mM measured by ChIP-seq analysis relative to control cells.
Assay [8] shares this target. The assay can be described thus: Inhibition of RNA polymerase II in mouse B16-F1 migrating cells assessed as fold change in Thrap3-RNA stability at 0.1 mM measured by ChIP-seq analysis relative to control cells.
Assay [9] shares this target. Kind of assay: Inhibition of RNA polymerase II in mouse B16-F1 migrating cells assessed as fold change in Rbm7-RNA stability at 0.1 mM measured by ChIP-seq analysis relative to control cells.
The target is the same in assay [10]. The assay can be described thus: Inhibition of RNA polymerase II in mouse B16-F1 migrating cells assessed as fold change in Usp1-RNA stability at 0.1 mM measured by ChIP-seq analysis relative to control cells.
The target is the same in assay [11]. The assay can be described thus: Inhibition of RNA polymerase II in mouse B16-F1 migrating cells assessed as fold change in Zfp148-RNA stability at 0.1 mM measured by ChIP-seq analysis relative to control cells.
The target is the same in assay [12]. Kind of assay: Inhibition of RNA polymerase II in mouse B16-F1 migrating cells assessed as fold change in Acadsb-RNA stability at 0.1 mM measured by ChIP-seq analysis relative to control cells.
Assay [13] has the same target. Kind of assay: Inhibition of RNA polymerase II in mouse B16-F1 migrating cells assessed as fold change in Luc7l3-RNA stability at 0.1 mM measured by ChIP-seq analysis relative to control cells.
Assay [14] shares this target. Kind of assay: Inhibition of RNA polymerase II in mouse B16-F1 migrating cells assessed as fold change in Hmmr-RNA stability at 0.1 mM measured by ChIP-seq analysis relative to control cells.
Assay [15] has the same target. Kind of assay: Inhibition of RNA polymerase II in mouse B16-F1 migrating cells assessed as fold change in Zfp946-RNA stability at 0.1 mM measured by ChIP-seq analysis relative to control cells.
For assay [16], the target named is Histone-lysine N-methyltransferase EZH2 (Mus musculus) (UniProt Q61188). The assay can be described thus: Inhibition of EZH2 in mouse B16-F1 migrating cells assessed as fold change in H3K27me3-independent regulated Gadd45g-mRNA expression at 3 uM measured by ChIP-seq analysis relative to control cells.
The target is the same in assay [17]. The assay can be described thus: Inhibition of EZH2 in mouse B16-F1 migrating cells assessed as fold change in H3K27me3-independent regulated Nppb-mRNA expression at 3 uM measured by ChIP-seq analysis relative to control cells.
The target is the same in assay [18]. Kind of assay: Inhibition of EZH2 in mouse B16-F1 migrating cells assessed as fold change in H3K27me3-independent regulated Gpi1-mRNA expression at 3 uM measured by ChIP-seq analysis relative to control cells.
Assay [19] has the same target. The assay can be described thus: Inhibition of EZH2 in mouse B16-F1 migrating cells assessed as fold change in H3K27me3-buffered regulated Bin3-mRNA expression at 3 uM measured by ChIP-seq analysis relative to control cells.
Assay [20] shares this target. The assay can be described thus: Inhibition of EZH2 in mouse B16-F1 migrating cells assessed as fold change in H3K27me3-buffered regulated Morn2-mRNA expression at 3 uM measured by ChIP-seq analysis relative to control cells.
For assay [21] the target is unchanged. The assay can be described thus: Inhibition of EZH2 in mouse B16-F1 migrating cells assessed as fold change in H3K27me3-buffered regulated Dhcr24-mRNA expression at 3 uM measured by ChIP-seq analysis relative to control cells.
Assay [22] has the same target. Kind of assay: Inhibition of EZH2 in mouse B16-F1 migrating cells assessed as fold change in H3K27me3-buffered regulated Smpd1-mRNA expression at 3 uM measured by ChIP-seq analysis relative to control cells.
For assay [23] the target is unchanged. Kind of assay: Inhibition of EZH2 in mouse B16-F1 migrating cells assessed as fold change in H3K27me3-buffered regulated L3hypdh-mRNA expression at 3 uM measured by ChIP-seq analysis relative to control cells.
Assay [24] has the same target. The assay can be described thus: Inhibition of EZH2 in mouse B16-F1 migrating cells assessed as fold change in H3K27me3-buffered regulated Carf-mRNA expression at 3 uM measured by ChIP-seq analysis relative to control cells.
Assay [25] shares this target. The assay can be described thus: Inhibition of EZH2 in mouse B16-F1 migrating cells assessed as fold change in H3K27me3-buffered regulated Fcho2-mRNA expression at 3 uM measured by ChIP-seq analysis relative to control cells.
For assay [26] the target is unchanged. Kind of assay: Inhibition of EZH2 in mouse B16-F1 migrating cells assessed as fold change in H3K27me3-buffered regulated Pif1-mRNA expression at 3 uM measured by ChIP-seq analysis relative to control cells.
Assay [27] shares this target. Kind of assay: Inhibition of EZH2 in mouse B16-F1 migrating cells assessed as fold change in H3K27me3-buffered regulated Usp53-mRNA expression at 3 uM measured by ChIP-seq analysis relative to control cells.
Assay [28] has the same target. Kind of assay: Inhibition of EZH2 in mouse B16-F1 migrating cells assessed as fold change in H3K27me3-buffered regulated Bbs12-mRNA expression at 3 uM measured by ChIP-seq analysis relative to control cells.
Assay [29] has the same target. The assay can be described thus: Inhibition of EZH2 in mouse B16-F1 migrating cells assessed as fold change in H3K27me3-buffered regulated Dzip1l-mRNA expression at 3 uM measured by ChIP-seq analysis relative to control cells.
The target is the same in assay [30]. The assay can be described thus: Inhibition of EZH2 in mouse B16-F1 migrating cells assessed as fold change in H3K27me3-buffered regulated Mmp11-mRNA expression at 3 uM measured by ChIP-seq analysis relative to control cells.

For `OC[C@H]1O[C@@H](n2cnc3cc(Cl)c(Cl)cc32)[C@H](O)[C@@H]1O`, the log2FC in [1] is 0.52; in assay [2], 0.5; in assay [3], 0.46; in assay [4] it was 0.43; in assay [5], 0.4; in assay [6], -0.44. In addition, the log2FC in [7] was -0.46; in assay [8] it was -0.47; in assay [9], -0.49; in assay [10], -0.57; in assay [11], -0.6; in assay [12] it was -0.63. For the same compound, the log2FC was -0.74 in assay [13], -1 in [14] and -1.13 in assay [15].
For `CCCc1cc(C)[nH]c(=O)c1CNC(=O)c1cc(-c2ccnc(N3CCN(C)CC3)c2)cc2c1cnn2C(C)C`, the log2FC in [16] amounted to 0.84; in [17], 0.7; in assay [18] it was 0.55; in [19], 0.64; in assay [20], 0.47; in assay [21] it was 0.39. The log2FC is 0.39 in [22]; -0.45 in assay [23]; -0.48 in assay [24]; -0.48 in assay [25]; -0.49 in assay [26]; -0.51 in [27]. The log2FC is -0.61 in assay [28], -0.66 in assay [29] and -0.76 in assay [30].
